Measurements from PMC7226387.
For at least one entry, the source does not settle the construct or the ends of the probe. Where cells or extracts were used, other partners may take part. Negatives hold for the conditions tested.

Chains of the proteins cited; added tags and fusions are not shown. Residues count along the entry.
UniProt P28908, 19-595: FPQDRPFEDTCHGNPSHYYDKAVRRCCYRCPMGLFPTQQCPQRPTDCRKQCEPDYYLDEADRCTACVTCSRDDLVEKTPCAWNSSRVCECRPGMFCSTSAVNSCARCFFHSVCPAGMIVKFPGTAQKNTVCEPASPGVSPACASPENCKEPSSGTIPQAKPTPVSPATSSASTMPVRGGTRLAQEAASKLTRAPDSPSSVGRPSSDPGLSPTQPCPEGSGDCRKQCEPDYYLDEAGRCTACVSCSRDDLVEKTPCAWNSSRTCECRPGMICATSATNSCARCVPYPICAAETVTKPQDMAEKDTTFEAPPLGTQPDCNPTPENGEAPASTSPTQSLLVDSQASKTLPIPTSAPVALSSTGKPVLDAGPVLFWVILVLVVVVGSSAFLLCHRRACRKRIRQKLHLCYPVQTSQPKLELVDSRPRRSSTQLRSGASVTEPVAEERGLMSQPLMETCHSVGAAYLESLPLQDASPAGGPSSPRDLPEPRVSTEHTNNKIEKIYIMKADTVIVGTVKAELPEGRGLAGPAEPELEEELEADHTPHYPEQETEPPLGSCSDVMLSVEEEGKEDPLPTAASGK

Biological target: CD30 (cell-surface, Karpas 299 cells) (human) (UniProt P28908)
Experiment: flow cytometry
Conditions: 50 nM dsDNA alone, 20 min, Cell binding in 100 µL PBS, 50 nM oligonucleotide, 2x10^5 cells, PBS wash, pH and temperature not stated, protein on the cell surface, label: Cy5

Question: Does “CGCGCGCGCGCGCGCGCGCG (double strand) [CG-repeat dsDNA (Dox carrier)]” bind?
Answer: Result: no binding
